A short description of the data set: Residual chrome in the tanning bath after pre-treatment of hides with the carbonyl compound and chrome tanning.

Take `CC(=O)CC(C)(C)O` [diacetone alcohol]: for the setting “Example 2: 3% diacetone alcohol for 2 hours, bath pH 5.5 to 5.7, 6% basic chrome sulfate, 13 hours, no pickling”, the “chromium in residual bath” value is 0.04%. Further, the “chrome in residual bath” value reads like this: (Example 3: 2% diacetone alcohol for 2 hours, bath pH 5.5 to 6.0, 4% basic chrome sulfate, 15 hours, no pickling) 0.026%; (Example 4: 0.1% formic acid, 2% diacetone alcohol for 2 hours, bath pH 4.0 to 4.2, 4% basic chrome sulfate, 13 hours) 0.04%; (Example 5: 1700 kg hide, 2% diacetone alcohol for 2 hours, 4.5% basic chrome sulfate, 8 hours, then 45° C. and 5 hours) 0.08%.
